The inconclusive results got no clear call from the source; some entries with a clear call stand among them for comparison. Potencies beside an inconclusive call are fits to weak or partial responses and may not hold up. Activity calls are given as the source filed them. The call rests on the fitted dose curve; in most records, active means well fitted inhibition curve with a large enough effect; inconclusive means small, poorly fitted or top-dose-only effect; inactive means no such curve, though single readings can be large or run the other way.
target: Tumor susceptibility gene 101 protein (Homo sapiens) (UniProt Q99816); assay: qHTS Assay for Iinhibitors of HIV-1 Budding by Blocking the Interaction of PTAP/TSG101: Hit Validation in TR assay; settings: Tsg101 binding domain + Texas Red-labeled PTAP peptide, fluorescence polarization, 20 min; series mostly up to 57.5 µM; activity change, negative = inhibition: at the top concentration
Summary of the method: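 Texas Red-PTAP peptide (50 nM) binding to Tsg101 binding domain (10 uM), both final, in pH 7.5 HEPES buffer, read as polarization after 20 min at room temperature; compounds pinned before peptide addition.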
On the % scale 0 is the no-effect control and ±100 the full control effect; potency means the concentration at half of the fitted maximal effect.

Protein sequences, listed by entry. Tags and fused reporters are not part of them. Lines headed by an entry give the natural chain unless they say otherwise; changes in a name come on top.
UniProt Q99816: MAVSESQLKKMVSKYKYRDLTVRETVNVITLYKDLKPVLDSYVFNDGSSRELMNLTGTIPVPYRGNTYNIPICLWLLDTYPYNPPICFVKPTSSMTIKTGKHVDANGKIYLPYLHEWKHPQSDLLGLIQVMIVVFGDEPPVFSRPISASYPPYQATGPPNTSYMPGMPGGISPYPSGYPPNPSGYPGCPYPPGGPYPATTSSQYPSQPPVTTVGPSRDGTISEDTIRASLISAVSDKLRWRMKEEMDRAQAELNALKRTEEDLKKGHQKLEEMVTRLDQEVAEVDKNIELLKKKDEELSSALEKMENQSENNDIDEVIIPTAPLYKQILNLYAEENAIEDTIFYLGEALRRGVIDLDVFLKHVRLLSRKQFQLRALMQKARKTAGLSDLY

Compound | Potency | activity change, negative = inhibition
Oc1ccc2ccccc2c1C=Nc1ccccc1Br | inconclusive: 14.6 µM [inhibitor, single point] | 
O=C1C=CC(=O)c2c(O)c(CO)c(CO)c(O)c21 |  | inactive: -27.2%
CCN1CC=C2C(C#N)=C(N)C(C#N)(C#N)C(CCc3ccccc3)C2C1 (stereo unspecified) | active: 11.6 µM | 
CCN(CC)c1ccc(/C=c2\sc3nc4ccccc4n3c2=O)c(O)c1 |  | inactive: -27%
CCN(CC)c1ccc2c(-c3ccc(S(=O)(=O)O)cc3S(=O)(=O)[O-])c3ccc(=[N+](CC)CC)cc-3oc2c1 | active: 0.13 µM | 
CC(=O)N1CCc2nc3sc(C(=O)c4ccc(F)cc4)c(N)c3c(C(F)(F)F)c2C1 | inconclusive: 5.17 µM [inhibitor, partial curve, poor fit] | 

Reference: PubChem BioAssay AID651599 (National Center for Advancing Translational Sciences (NCATS), 2012)
